For one substance, binding results are on record in PMC4982022.

The chains behind the UniProt entries cited, without tags or fusion partners.
UniProt P61765: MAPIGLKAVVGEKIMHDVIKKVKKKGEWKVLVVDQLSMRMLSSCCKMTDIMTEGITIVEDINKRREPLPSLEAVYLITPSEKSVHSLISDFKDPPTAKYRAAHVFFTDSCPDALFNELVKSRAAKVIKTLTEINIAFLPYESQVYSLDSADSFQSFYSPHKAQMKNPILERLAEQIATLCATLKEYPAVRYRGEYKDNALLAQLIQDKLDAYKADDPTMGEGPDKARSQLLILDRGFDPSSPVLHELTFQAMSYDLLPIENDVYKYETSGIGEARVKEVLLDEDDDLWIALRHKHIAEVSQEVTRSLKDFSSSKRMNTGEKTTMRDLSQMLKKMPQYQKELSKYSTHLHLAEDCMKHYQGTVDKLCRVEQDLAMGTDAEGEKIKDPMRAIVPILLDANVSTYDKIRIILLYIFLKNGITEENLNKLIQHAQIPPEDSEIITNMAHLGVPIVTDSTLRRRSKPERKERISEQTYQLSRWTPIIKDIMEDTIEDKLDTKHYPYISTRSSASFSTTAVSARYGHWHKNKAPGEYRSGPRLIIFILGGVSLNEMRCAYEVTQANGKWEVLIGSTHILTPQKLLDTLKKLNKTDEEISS

Results are given in words; binding and its absence hold for the method and conditions named. In cells and extracts the contact can be indirect. Some entries that bind do so weakly or less than the wild type. Tags and fused reporters may be left off the sequences shown.

For this experiment, the target named is T1, GST‐Mint1(1‐314) (mouse) (UniProt B2RUJ5).
T1 sequence: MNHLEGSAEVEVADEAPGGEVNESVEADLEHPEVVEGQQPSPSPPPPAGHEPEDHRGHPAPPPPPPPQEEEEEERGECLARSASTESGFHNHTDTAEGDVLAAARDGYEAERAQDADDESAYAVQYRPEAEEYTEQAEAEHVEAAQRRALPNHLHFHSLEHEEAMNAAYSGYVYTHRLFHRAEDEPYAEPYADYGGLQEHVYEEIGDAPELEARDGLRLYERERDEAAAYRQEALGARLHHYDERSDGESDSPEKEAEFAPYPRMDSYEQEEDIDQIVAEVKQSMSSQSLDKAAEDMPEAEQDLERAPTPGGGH
Nature of the experiment: pull-down; GST‐Mint1(1‐314) incubated with or without C‐Src kinase, then with glutathione resin and bacterial lysate containing His‐Munc18; bound Munc18 detected by immunoblotting; only the target purified. (Immunoblotting shows a protein as a band on a membrane.)

With His‐Munc18 (from UniProt P61765 1-594), the binding result is “binds”.
